Experimental data from patent US20160115189A1, “PARASITICIDAL COMPOUNDS, METHODS, AND FORMULATIONS” (ELI LILLY AND COMPANY, priority 2013, published 2016).
Some results were stated once for a whole list of compounds, not compound by compound.

Test system: adult brown tick (Rhipicephalus sanguineus)
Experiment: Assay 5: adult brown tick infestations on dogs
Format: in vivo, Rhipicephalus sanguineus on beagle dogs
Conditions: 10 mg/kg
Protocol: The total number of live parasites present on each dog is determined for each interval, and this number is transformed using the natural logarithm transformation plus one (Ln count+1); addition of one to each count served to adjust for counts that are zero. Geometric mean (GM) group tick and flea counts are obtained via back-transformation of group mean transformed counts and subtracting one. The negative control group is used for comparison to treated groups for the calculation of percent efficacy (% reduction in live parasite counts). GM percent efficacy of treatments is calculated using the following formula: […]
The therapeutic (knockdown) and residual efficacy of the Example 1-4 compounds, when administered via topical spot-on at 10 mg/kg, is evaluated against adult brown tick (Rhipicephalus sanguine us) infestations on dogs. Twenty (20) beagle dogs are allocated to either an untreated, negative control group or one of four treated groups (n=4 dogs per group). Dogs are infested with approximately 50 unfed, adult R. sanguineus ticks on Days −1, 5, 12, 19 and 28. On Day 0, dogs are treated with Example 1-4 compound formulations (each, 50 mg/ml of technical active dissolved in a vehicle solution of propylene carbonate, benzyl alcohol, and isopropyl myristate), applied via topical spot-on in a volume so as to achieve a point dose of 10 mg/kg. Tick counts and classification are conducted on Days 2, 7, 14, 21 and 30. GM percent efficacy of treatments against ticks is calculated using the formula in Assay 3.

Compound | Residual efficacy against R. sanguineus (through Day 7) | Residual efficacy against R. sanguineus (through Day 21)
CC[C@H]1CCC[C@H](NC(=O)c2ccco2)[C@@H](C)C(=O)C2=C[C@@H]3[C@@H](C=C[C@@H]4C[C@@H](O[C@@H]5O[C@@H](C)[C@H](OC)C(OC)[C@H]5OC)C[C@@H]34)[C@@H]2CC(=O)O1 (stereo partly drawn) [Example 1, N-((2R,3aS,5aR,5bS,9S,13S,14R,16aS,16bR)-9-ethyl-14-methyl-7,15-dioxo-2-(((2R,3R,5S,6S)-3,4,5-trimethoxy-6-methyltetrahydro-2H-pyran-2-yl)oxy)-2,3,3a,5a,5 b,6,7,9,10,11,12,13,14,15,16a,16b-hexadecahydro-1H-as-indaceno[3,2-d][1]oxacyclododecin-13-yl)furan-2-carboxamide] | > 95% | > 95%
CC[C@H]1CCC[C@H](NC(=O)c2ccncn2)[C@@H](C)C(=O)C2=C[C@@H]3[C@@H](C=C[C@@H]4C[C@@H](O[C@@H]5O[C@@H](C)[C@H](OC)C(OC)[C@H]5OC)C[C@@H]34)[C@@H]2CC(=O)O1 (stereo partly drawn) [Example 2, N-((2R,3aS,5aR,5bS,9S,14R,16aS,16bR)-9-ethyl-14-methyl-7,15-dioxo-2-(((2R,3R,5S,6S)-3,4,5-trimethoxy-6-methyltetrahydro-2H-pyran-2-yl)oxy)-2,3,3a,5a,5 b,6,7,9,10,11,12,13,14,15,16a,16b-hexadecahydro-1H-as-indaceno[3,2-d][1]oxacyclododecin-13-yl)pyrimidine-4-carboxamide] | > 95% | 
CC[C@H]1CCC[C@H](NC(=O)c2cc(C)on2)[C@@H](C)C(=O)C2=C[C@@H]3[C@@H](C=C[C@@H]4C[C@@H](O[C@@H]5O[C@@H](C)[C@H](OC)C(OC)[C@H]5OC)C[C@@H]34)[C@@H]2CC(=O)O1 (stereo partly drawn) [Example 4, N-((2R,3aS,5aR,5bS, 9S,13S,14R,16aS, 16bR)-9-ethyl-14-methyl-7,15-dioxo-2-(((2R,3R,5S,6S)-3,4,5-trimethoxy-6-methyltetrahydro-2H-pyran-2-yl)oxy)-2,3,3a,5a,5b,6,7,9, 10,11,12,13,14,15, 16a,16b-hexadecahydro-1H-as-indaceno[3,2-d][1]oxacyclododecin-13-yl)-5-methyl-isoxazole-3-carboxamide] | > 95% | 
